Reference: the supplement of paper PMC5949888
Most values lie at the floor of the assay. Slopes are relative: functional sequences can read slightly below zero.

What follows are substances tested on Saccharomyces cerevisiae PS128 hsf1 delta, HSF1(1-493) fusion (assay: growth estimate (transactivation domain function in HSF1 fusion, heat-shock survival) (a.u. (slope of normalised read count over time)); higher = stronger growth at 37°C, i.e. more transactivation activity). Settings: library: random library.

Row | Substance | growth estimate
1 | SKHRPVTRTRKLIMAWLEWQ | < -0.25
2 | HPAITPTNGAGENELTARDV | < -0.25
3 | LIRREIYQCEY | < -0.25
4 | GHFSRYWASVGVDRSAAPNP | < -0.25
5 | SSTRVLGHWGVSAMTKKAFC | < -0.25
6 | LPEAASRNSS | < -0.25
7 | NRTIHIRD | < -0.25
8 | PLLVLNTS | < -0.25
9 | CSHV | < -0.25
10 | PGPRELSRGRQ | < -0.25
11 | RPRDIVRQ | < -0.25
12 | LCHIKNIAKLR | < -0.25
13 | WAYLFCPL | < -0.25
14 | GSLLVFNIISLGRDLIFS | < -0.25
15 | YELLSLRSRTSRPPTI | -0.243
16 | ESYMFCVRRS | < -0.25
17 | GDIASLRQLSGPLVRSIRRR | < -0.25
18 | TISVWPIL | < -0.25
19 | STLRALGVSRAVQMQFRPIV | < -0.25
20 | TRFGFFGYPYQLE | 0.0108
21 | AHTWKSMLPRSRSLSNQTLV | < -0.25
22 | HNS | < -0.25
23 | QELS | < -0.25

7 neighbouring records from above, for reference:
Row | Substance | growth estimate
12 | LCHIKNIAKLR | < -0.25
13 | WAYLFCPL | < -0.25
14 | GSLLVFNIISLGRDLIFS | < -0.25
15 | YELLSLRSRTSRPPTI | -0.243
16 | ESYMFCVRRS | < -0.25
17 | GDIASLRQLSGPLVRSIRRR | < -0.25
18 | TISVWPIL | < -0.25

The list goes on:

Row | Substance | growth estimate
24 | IMHIKH | < -0.25
25 | ESYSTPYSYCVLLRCRYDGY | < -0.25
26 | RRIDSFFSL | < -0.25
27 | VSGLSRG | < -0.25
28 | LPTPCMLLMECARG | < -0.25
29 | VCHR | < -0.25
30 | RPISPAKGQYVPYGCHWTEL | < -0.25
31 | EPLSRLHYQLAECCGS | -0.229
32 | RSGPRAHD | < -0.25
33 | WESLCERYYVVH | < -0.25
34 | TEPFLYIGQDNGHWCAGAAW | < -0.25
35 | LPTGSCRALRQPCRLDGEPR | < -0.25
36 | GRRASILH | -0.245
37 | IVGMRLLKHCYSWRRTMSLP | < -0.25
38 | CSWCVSFDPECG | -0.233
39 | TELHFKMEIPRVDLDLR | -0.241
40 | HRLDYLSKQMRRVRLRSPL | < -0.25
41 | TFTIQDTETEMFGCSVRKPL | < -0.25
42 | AQRGPSNAHILGSQPRLSIL | < -0.25
43 | MLRTLVEGLPRIGTLMDSR | < -0.25
44 | RIGWSRISRLLPSMVYSRNG | < -0.25
45 | GVDPGYDCKGIRSDPRRATH | < -0.25
46 | GQSGLLSIQYTAL | < -0.25

Row | Substance | growth estimate
47 | CMAEPPRLID | < -0.25
48 | LAGSSGSGPSVTRIGVGPAS | < -0.25
49 | MGLLHPKLTRREGKLWSLAP | < -0.25
50 | WSTNSTPGTHPLVS | < -0.25
51 | NLDSAPRSLTDGALNIQEVT | < -0.25
52 | KKSGRLASAENGGLYIRNMP | -0.134
53 | AVAP | < -0.25
54 | KDWKRGWTKELIRHLGRTGK | < -0.25
55 | AVTRIVESDNWPE | < -0.25
56 | SKIIPRYTK | -0.239
57 | RSDPWHF | < -0.25
58 | VEYYG | < -0.25
59 | ECRSIRAQHREGPKG | < -0.25
60 | RVMTRGR | -0.246
61 | LYFVRLTLHVRD | < -0.25
62 | HGVMIQR | < -0.25
63 | IGGSSGGD | < -0.25
64 | LRF | < -0.25
65 | SRCEGHVHVSSPI | < -0.25
66 | FSDWRGSVGVDKLLARGRH | < -0.25
67 | IVFS | < -0.25
68 | WMARVSAMSTEQALSTCWKS | < -0.25
69 | ITV | < -0.25

Row | Substance | growth estimate
70 | LTRSRACFDCTWVRLASRSL | < -0.25
71 | VYLVRGLDWVTRGGGRTAGA | < -0.25
72 | SLGPA | < -0.25
73 | FVKQAASRFLYELSVS | < -0.25
74 | SNPVHFELIRCSTKFSGCAG | < -0.25
75 | PVIVIPNLDCRDPLFVLAHR | -0.246
76 | VRLSTRSYRES | < -0.25
77 | RSRA | < -0.25
78 | SSLER | < -0.25
79 | GVQPLEGKNRYSRWVRLERR | < -0.25
80 | PPQSLRSCWAGYRYWMGYTQ | < -0.25
81 | RGVLIYYSVPVEGA | < -0.25
82 | AIRDQGQKTYAVSSWHYIEW | < -0.25
83 | MLCKNSVVIRTNRLRHYRHR | < -0.25
84 | DKSRN | -0.243
85 | QNSHQLGSYWEGAINWNM | -0.193
86 | IIWA | < -0.25
87 | FWMFEAVAKETASFWRYLRA | < -0.25
88 | TGLRSALMPAGGTDGSTRTA | < -0.25
89 | TAVVQSLIGERLAVLGQSIP | < -0.25
90 | GCCLDVVG | < -0.25
91 | RSTSACTRMEPAIVHTYYCA | < -0.25
92 | LNHIEAFILRGPWTSS | < -0.25

Some of the entries above, set out differently:
GHFSRYWASVGVDRSAAPNP
  growth estimate: < -0.25
DKSRN
  growth estimate: -0.243
RSTSACTRMEPAIVHTYYCA
  growth estimate: < -0.25

Remaining list, next part:

Row | Substance | growth estimate
93 | GLLLTW | < -0.25
94 | VLVLELSPPGTTEWS | -0.191
95 | GAVKSELDRAYQIPGPTKLE | < -0.25
96 | RLQACYGFYSCVATGF | < -0.25
97 | EWYRGCQASTVVFSSRTTGA | < -0.25
98 | LLYHARP | < -0.25
99 | VGFPGLGFLRRNLWEACWGW | < -0.25
100 | WSHRAAREPEIAPTLLATCP | < -0.25
101 | GQEE | < -0.25
102 | LSLHAKDLPMIWSVRVVWFI | < -0.25
103 | CSLRCPISHNVNQHREVSIK | < -0.25
104 | VRIGYRGNQ | < -0.25
105 | IIATP | < -0.25
106 | AESRSG | < -0.25
107 | RRLCISSTIVFSVKKEGA | < -0.25
108 | GMAHTTIVPSRATQKVYDPN | < -0.25
109 | SEKFNSFGSQGPSLH | < -0.25
110 | RTSDR | < -0.25
111 | NLYVVQATA | < -0.25
112 | NVLFLEPRLGILEGGRYD | < -0.25
113 | PRKLKHRVKFEVEYGNLSTM | < -0.25
114 | YCVPPLLVRMC | < -0.25
115 | CNGRVTNH | < -0.25

Row | Substance | growth estimate
116 | NFRTTRSRLPWYSSKNIART | < -0.25
117 | AETKKKV | -0.245
118 | RWD | < -0.25
119 | ELDASARGASQLVKGVPNAP | < -0.25
120 | FRAKTTNGGGKSEVDKCGG | < -0.25
121 | CVDPFIADDGSIPCHIRSVQ | -0.25
122 | SAQRSPPLYMSPDT | < -0.25
123 | DVIETTRVRRVVGPREGKGF | < -0.25
124 | GLQGRYPMLCPILWTRSFVT | < -0.25
125 | QYLGSNIFFEFQYGWELVSN | < -0.25
126 | AQLAEIFASALFVRRVLAYM | < -0.25
127 | WPGKEILSGRGNSRSSRLAS | < -0.25
128 | YTVRRDEVTAVTTSFLVRWI | < -0.25
129 | TGVSSVRRCKKKKVGTAYTT | < -0.25
130 | RGTGVKARRRSWPTSVGCFS | < -0.25
131 | ARQREKGATRNATSGPDRNN | < -0.25
132 | AWHVRILTAKSNPNFNSLEY | < -0.25
133 | TTWC | < -0.25
134 | ALGSTLFSVKQGISLRNGDS | < -0.25
135 | QWYGNLRARHFRDR | < -0.25
136 | VRSRAFSRRGWITALAPHS | < -0.25
137 | DSRMDR | < -0.25
138 | RRCAGHVSLRCNLWSGRSQP | < -0.25

Row | Substance | growth estimate
139 | YQNTNREENRA | < -0.25
140 | YWSDSL | < -0.25
141 | ALNGHRSGEYNPRGNSHSRL | < -0.25
142 | TTDDIGDKLPLRE | < -0.25
143 | FAGALWLAALMPGCPETVLA | < -0.25
144 | SFEIDLGLWVVPCPGTDNAV | < -0.25
145 | PRALVRQPCAS | < -0.25
146 | TDLRWTCIRRCGQKNPVDCD | < -0.25
147 | WSSSALYSCCRVLRLRPIDV | < -0.25
148 | MIDAFARNSAWR | < -0.25
149 | SIRVVISWSPVRCLGVRDLT | < -0.25
150 | LFQPLRAVLRQDGITTSLIP | < -0.25
151 | TSYGAYIQGYGNGGPS | < -0.25
152 | YERSFIDKLVG | < -0.25
153 | VRDWVLGFKAQGLADMVRYV | < -0.25
154 | TGNVCVIPYIR | < -0.253
155 | DSSPLPLGEPAFKLSVGELF | < -0.25
156 | RQAPPVEVTPLVLELAFRVG | < -0.25
157 | HLAGRDFNQLGDSSPPLGAV | < -0.25
158 | RTALGVLRRFGRALNLWTRT | < -0.25
